# According to the supplement of paper PMC10849652:
# By UniProt entry, the sequences of proteins in these tests, tags left out. Where a name states a change or a piece, a line headed by the entry shows the natural chain unless it says otherwise.
# UniProt Q6VVX0: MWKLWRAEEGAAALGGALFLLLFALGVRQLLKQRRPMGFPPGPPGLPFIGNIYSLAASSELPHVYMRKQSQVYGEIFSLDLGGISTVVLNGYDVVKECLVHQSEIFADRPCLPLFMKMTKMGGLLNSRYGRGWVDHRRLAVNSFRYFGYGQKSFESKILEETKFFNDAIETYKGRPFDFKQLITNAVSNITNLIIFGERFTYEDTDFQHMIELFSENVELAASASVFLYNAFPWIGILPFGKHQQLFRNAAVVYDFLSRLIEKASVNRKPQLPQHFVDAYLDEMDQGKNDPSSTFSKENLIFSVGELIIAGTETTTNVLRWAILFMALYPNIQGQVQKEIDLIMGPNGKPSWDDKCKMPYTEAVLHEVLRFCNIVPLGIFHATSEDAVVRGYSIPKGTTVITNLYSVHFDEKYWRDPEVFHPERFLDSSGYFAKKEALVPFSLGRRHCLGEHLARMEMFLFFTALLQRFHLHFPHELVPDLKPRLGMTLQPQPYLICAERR
# UniProt Q7L5Y6, whole entry, looked up: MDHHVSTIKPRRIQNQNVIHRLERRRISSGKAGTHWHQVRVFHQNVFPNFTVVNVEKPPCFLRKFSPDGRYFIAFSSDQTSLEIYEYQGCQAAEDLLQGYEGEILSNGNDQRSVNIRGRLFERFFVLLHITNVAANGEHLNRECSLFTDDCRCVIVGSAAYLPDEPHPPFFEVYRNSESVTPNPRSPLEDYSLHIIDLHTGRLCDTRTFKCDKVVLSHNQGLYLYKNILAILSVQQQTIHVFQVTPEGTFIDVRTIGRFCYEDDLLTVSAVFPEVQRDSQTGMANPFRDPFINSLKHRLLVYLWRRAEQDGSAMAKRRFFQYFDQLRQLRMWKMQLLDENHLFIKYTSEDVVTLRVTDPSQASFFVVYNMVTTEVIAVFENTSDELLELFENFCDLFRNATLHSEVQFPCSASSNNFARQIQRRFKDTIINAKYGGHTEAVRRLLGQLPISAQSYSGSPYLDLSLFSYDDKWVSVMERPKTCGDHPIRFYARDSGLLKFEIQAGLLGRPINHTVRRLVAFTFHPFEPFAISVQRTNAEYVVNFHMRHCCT
# UniProt Q8IWE4: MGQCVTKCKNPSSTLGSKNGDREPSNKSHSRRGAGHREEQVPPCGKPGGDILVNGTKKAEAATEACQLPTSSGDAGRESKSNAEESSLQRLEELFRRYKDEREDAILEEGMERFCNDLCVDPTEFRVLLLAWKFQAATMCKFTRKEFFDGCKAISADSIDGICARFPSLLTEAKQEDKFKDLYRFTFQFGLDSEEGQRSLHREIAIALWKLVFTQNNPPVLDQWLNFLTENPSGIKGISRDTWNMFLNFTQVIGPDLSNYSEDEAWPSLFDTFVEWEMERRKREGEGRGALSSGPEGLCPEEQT
# UniProt Q5VW00: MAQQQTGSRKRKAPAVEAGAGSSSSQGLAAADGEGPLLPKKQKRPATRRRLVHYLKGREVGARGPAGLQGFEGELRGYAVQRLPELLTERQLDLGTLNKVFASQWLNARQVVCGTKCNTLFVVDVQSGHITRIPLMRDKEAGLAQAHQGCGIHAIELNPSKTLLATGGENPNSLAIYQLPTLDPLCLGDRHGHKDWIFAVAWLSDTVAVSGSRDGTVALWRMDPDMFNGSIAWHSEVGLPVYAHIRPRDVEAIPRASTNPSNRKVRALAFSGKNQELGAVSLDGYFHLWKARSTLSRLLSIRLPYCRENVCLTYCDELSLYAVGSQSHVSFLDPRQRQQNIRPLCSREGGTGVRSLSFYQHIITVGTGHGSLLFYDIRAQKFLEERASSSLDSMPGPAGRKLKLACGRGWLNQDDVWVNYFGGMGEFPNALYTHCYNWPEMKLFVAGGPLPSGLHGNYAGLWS
# UniProt Q5H9S7: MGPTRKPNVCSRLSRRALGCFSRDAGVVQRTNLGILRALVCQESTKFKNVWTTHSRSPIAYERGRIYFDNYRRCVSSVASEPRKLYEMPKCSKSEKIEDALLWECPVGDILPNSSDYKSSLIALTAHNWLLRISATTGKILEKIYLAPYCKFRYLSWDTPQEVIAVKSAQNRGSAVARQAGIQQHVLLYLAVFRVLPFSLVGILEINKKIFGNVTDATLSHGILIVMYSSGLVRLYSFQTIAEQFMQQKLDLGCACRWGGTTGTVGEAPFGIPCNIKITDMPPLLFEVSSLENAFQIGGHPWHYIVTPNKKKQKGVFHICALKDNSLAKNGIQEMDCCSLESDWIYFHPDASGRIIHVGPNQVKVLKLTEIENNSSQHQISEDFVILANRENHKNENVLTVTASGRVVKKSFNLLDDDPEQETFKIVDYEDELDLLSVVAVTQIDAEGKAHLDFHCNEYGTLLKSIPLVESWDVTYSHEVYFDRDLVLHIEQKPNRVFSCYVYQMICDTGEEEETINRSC
# UniProt Q96QD5: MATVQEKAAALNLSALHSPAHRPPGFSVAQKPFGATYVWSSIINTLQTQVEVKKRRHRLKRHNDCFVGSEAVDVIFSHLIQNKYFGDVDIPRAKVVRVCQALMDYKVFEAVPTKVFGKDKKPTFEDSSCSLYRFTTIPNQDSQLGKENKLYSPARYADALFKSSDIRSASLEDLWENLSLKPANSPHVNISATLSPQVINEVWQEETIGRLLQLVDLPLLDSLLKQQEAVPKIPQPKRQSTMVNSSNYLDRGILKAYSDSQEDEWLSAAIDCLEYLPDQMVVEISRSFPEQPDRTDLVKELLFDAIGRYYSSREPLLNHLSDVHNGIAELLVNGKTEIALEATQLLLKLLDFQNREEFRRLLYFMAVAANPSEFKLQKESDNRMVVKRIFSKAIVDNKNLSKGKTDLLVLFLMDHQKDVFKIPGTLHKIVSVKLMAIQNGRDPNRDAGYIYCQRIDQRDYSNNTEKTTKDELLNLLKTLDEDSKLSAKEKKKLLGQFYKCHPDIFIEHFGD
# UniProt Q8WUY9, whole entry, looked up: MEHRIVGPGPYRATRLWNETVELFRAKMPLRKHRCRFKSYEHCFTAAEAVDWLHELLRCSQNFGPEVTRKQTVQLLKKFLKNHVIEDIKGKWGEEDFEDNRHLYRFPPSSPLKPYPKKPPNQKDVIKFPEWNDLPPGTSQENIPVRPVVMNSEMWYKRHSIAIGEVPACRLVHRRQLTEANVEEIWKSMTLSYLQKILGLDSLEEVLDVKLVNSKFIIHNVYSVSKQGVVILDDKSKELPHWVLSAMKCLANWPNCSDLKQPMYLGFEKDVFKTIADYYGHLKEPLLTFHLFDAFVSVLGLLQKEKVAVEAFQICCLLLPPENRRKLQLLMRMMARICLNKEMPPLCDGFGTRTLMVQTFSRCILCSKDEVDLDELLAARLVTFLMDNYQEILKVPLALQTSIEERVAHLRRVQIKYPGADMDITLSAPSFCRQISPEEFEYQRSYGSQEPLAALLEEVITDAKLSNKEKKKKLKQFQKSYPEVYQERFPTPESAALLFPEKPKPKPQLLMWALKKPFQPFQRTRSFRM
# UniProt Q9NX09: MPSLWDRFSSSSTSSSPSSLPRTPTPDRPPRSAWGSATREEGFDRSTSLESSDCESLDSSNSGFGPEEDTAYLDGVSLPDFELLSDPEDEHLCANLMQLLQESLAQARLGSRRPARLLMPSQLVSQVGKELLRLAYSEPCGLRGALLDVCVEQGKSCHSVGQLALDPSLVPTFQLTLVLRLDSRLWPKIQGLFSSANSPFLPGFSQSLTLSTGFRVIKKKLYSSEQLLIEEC
# UniProt O43293: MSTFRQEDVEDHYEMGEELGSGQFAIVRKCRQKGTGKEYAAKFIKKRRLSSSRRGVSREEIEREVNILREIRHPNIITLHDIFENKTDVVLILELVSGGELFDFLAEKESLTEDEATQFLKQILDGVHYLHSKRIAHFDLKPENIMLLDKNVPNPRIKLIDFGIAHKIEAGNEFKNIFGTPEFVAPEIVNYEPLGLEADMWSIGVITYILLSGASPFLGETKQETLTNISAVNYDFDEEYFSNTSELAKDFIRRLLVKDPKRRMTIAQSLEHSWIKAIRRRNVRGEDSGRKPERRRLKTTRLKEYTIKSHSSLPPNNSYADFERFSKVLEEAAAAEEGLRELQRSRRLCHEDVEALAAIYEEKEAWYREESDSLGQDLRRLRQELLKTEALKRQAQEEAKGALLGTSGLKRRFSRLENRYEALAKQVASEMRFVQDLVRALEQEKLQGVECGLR
# UniProt Q6ZWL3: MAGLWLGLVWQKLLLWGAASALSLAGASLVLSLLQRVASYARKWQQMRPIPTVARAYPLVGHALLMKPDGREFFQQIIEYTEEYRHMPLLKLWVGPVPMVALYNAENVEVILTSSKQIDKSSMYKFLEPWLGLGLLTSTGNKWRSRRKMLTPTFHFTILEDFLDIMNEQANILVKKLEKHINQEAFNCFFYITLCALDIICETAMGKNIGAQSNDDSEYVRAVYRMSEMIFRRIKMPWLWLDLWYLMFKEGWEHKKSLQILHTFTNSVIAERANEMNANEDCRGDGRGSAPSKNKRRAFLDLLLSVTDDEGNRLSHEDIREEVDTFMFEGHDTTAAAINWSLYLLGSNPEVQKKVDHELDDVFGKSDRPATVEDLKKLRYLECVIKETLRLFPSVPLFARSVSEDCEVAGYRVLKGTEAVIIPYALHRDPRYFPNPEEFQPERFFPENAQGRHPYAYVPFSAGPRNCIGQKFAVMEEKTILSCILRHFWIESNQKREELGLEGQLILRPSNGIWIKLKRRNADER
# UniProt Q6IQ26: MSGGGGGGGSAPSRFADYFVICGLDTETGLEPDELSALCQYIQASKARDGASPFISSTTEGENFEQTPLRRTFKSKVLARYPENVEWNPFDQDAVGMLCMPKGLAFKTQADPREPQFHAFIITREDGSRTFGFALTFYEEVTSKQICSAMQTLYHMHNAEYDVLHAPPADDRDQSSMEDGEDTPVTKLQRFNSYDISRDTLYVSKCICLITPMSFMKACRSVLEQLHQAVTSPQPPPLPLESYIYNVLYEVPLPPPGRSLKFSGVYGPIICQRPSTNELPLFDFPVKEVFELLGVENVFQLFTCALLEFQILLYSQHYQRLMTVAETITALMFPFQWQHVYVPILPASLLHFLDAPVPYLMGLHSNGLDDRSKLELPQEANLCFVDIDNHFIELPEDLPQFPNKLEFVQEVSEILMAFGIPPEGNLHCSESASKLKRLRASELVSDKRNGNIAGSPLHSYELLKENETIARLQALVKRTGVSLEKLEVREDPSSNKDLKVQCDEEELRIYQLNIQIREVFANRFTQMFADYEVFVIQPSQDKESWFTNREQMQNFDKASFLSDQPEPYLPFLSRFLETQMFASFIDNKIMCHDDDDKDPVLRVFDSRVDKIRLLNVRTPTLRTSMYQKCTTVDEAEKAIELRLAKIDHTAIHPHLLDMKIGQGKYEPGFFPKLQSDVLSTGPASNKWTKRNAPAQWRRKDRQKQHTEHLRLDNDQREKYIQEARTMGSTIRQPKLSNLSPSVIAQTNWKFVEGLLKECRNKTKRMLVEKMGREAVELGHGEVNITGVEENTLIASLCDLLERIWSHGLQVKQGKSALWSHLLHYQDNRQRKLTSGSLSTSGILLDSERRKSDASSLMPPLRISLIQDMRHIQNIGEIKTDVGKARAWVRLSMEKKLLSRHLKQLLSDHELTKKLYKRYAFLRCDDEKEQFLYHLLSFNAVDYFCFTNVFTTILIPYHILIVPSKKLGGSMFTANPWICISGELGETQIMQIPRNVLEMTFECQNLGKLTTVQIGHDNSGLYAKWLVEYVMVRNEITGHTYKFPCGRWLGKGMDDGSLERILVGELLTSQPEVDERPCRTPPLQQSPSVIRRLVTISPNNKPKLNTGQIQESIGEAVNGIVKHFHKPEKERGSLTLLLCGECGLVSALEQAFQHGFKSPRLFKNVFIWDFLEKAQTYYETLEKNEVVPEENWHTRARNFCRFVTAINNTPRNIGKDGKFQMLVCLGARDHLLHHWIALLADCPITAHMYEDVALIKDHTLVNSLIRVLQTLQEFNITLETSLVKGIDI
# UniProt Q9NUU7: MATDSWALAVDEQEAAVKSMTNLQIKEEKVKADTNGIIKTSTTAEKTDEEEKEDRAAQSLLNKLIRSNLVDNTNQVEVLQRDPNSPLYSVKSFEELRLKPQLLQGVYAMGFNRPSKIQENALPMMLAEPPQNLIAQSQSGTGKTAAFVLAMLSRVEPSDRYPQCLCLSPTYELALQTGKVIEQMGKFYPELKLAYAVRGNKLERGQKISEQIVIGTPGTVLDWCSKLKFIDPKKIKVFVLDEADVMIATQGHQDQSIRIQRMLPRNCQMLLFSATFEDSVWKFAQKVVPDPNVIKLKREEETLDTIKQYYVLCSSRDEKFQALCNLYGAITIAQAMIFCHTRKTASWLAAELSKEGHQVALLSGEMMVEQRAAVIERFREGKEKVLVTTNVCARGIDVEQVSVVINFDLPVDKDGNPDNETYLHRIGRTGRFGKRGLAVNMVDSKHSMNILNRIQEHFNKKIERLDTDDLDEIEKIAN
# UniProt P35638, whole entry, looked up: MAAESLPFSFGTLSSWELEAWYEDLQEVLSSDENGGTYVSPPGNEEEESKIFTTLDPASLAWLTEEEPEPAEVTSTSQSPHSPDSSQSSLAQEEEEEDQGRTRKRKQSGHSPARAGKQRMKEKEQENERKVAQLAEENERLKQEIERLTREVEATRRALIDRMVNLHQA
# The list shows a part of the results.
# How the values were obtained:
# Assay in all cases: log2 fold change, soluble protein after heating vs DMSO (PISA); higher = thermal stabilisation; K562 lysate, 10 uM; active = over 0.2 and 3.5 SD of the protein, either way, in both replicates (recomputed)
# alvocidib = compound: CN1CC[C@H](c2c(O)cc(O)c3c(=O)cc(-c4ccccc4Cl)oc23)[C@H](O)C1 [alvocidib]
# Summary of the method: (§1)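 K562 pellets were dounce-homogenised in PBS pH 7.4 with 1 mM MgCl2, and the crude extract at 1 mg/mL protein was treated with 10 μM compound for 30 min. Aliquots were heated for 3 min across 48°C-58°C, pooled, and brought to 0.5% NP-40 at 4°C; soluble protein was the supernatant after 21,000xg for 90 min. Soluble protein was quantified by TMTpro 16plex LC-MS/MS with channel sums equalised, and reported as log2 fold change in thermal stability against DMSO controls, with values from duplicates.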
# [1] = compound: COc1cc2nc(-c3cc(F)ccc3O)nc(N[C@@H]3CNC[C@H]3C(C)(C)O)c2cc1OC
# Summary of the method: as §1
# lapatinib = compound: CS(=O)(=O)CCNCc1ccc(-c2ccc3ncnc(Nc4ccc(OCc5cccc(F)c5)c(Cl)c4)c3c2)o1 [lapatinib]
# Summary of the method: as §1
# [2] = compound: C[C@H](C1=CC=C(C=C1)C(=O)NC2=C3C=CNC3=NC=C2)N
# Summary of the method: as §1
# gandotinib = compound: Cc1cc(Nc2cc(CN3CCOCC3)c3nc(C)c(Cc4ccc(Cl)cc4F)n3n2)n[nH]1 [gandotinib]
# Summary of the method: as §1
# [3] = compound: Cc1cccc(CC(=O)N2CCc3c2ccc(-c2cn(C)c4ncnc(N)c24)c3F)n1
# Summary of the method: as §1
# Tubastatin A = compound: CN1CCc2c(c3ccccc3n2Cc2ccc(C(=O)NO)cc2)C1 [Tubastatin A]
# Summary of the method: as §1
# [4] = compound: CNC(=O)C1=CC=CC=C1NC2=NC(=NC=C2Cl)NC3=C(C=C(C=C3)N4CCOCC4)OC
# Summary of the method: as §1
# defactinib = compound: CNC(=O)c1ccc(Nc2ncc(C(F)(F)F)c(NCc3nccnc3N(C)S(C)(=O)=O)n2)cc1 [defactinib]
# Summary of the method: as §1
# [5] = compound: CNc1nc(-c2ccc3c(N)n[nH]c3c2)cc(N2C[C@@H](C(=O)NC3CCCCC3)CC[C@H]2C)n1
# Summary of the method: as §1
# encorafenib = compound: COC(=O)N[C@@H](C)CNc1nccc(-c2cn(C(C)C)nc2-c2cc(Cl)cc(NS(C)(=O)=O)c2F)n1 [encorafenib]
# Summary of the method: as §1
# [6] = compound: COC(=O)[C@H](CCSC)NC(=O)C1=C(C=C(C=C1)NC[C@H](CS)N)C2=CC=CC=C2
# Summary of the method: as §1
# alisertib = compound: COc1cc(Nc2ncc3c(n2)-c2ccc(Cl)cc2C(c2c(F)cccc2OC)=NC3)ccc1C(=O)O [alisertib]
# Summary of the method: as §1
# gefitinib = compound: COc1cc2ncnc(Nc3ccc(F)c(Cl)c3)c2cc1OCCCN1CCOCC1 [gefitinib]
# Summary of the method: as §1
# duvelisib = compound: C[C@H](Nc1ncnc2nc[nH]c12)c1cc2cccc(Cl)c2c(=O)n1-c1ccccc1 [duvelisib]
# Summary of the method: as §1
# tozasertib = compound: Cc1cc(Nc2cc(N3CCN(C)CC3)nc(Sc3ccc(NC(=O)C4CC4)cc3)n2)n[nH]1 [tozasertib]
# Summary of the method: as §1
# crizotinib = compound: C[C@@H](Oc1cc(-c2cnn(C3CCNCC3)c2)cnc1N)c1c(Cl)ccc(F)c1Cl [crizotinib]
# Summary of the method: as §1
# doramapimod = compound: Cc1ccc(-n2nc(C(C)(C)C)cc2NC(=O)Nc2ccc(OCCN3CCOCC3)c3ccccc23)cc1 [doramapimod]
# Summary of the method: as §1
# pictilisib = compound: CS(=O)(=O)N1CCN(Cc2cc3nc(-c4cccc5[nH]ncc45)nc(N4CCOCC4)c3s2)CC1 [pictilisib]
# Summary of the method: as §1
# bafetinib = compound: Cc1ccc(NC(=O)c2ccc(CN3CC[C@H](N(C)C)C3)c(C(F)(F)F)c2)cc1Nc1nccc(-c2cncnc2)n1 [bafetinib]
# Summary of the method: as §1
target,measurement,setting,value
DDB1 isoform 2 (UniProt Q16531),log2 fold change,alvocidib,inactive: -0.377
same,log2 fold change,[1],inactive: 0.041
same,log2 fold change,lapatinib,inactive: -0.119
same,log2 fold change,[2],inactive: -0.904
same,log2 fold change,gandotinib,inactive: 0.188
same,log2 fold change,[3],inactive: 0.349
CYP2R1 (UniProt Q6VVX0),log2 fold change,Tubastatin A,inactive: -0.064
same,log2 fold change,[4],inactive: -0.077
same,log2 fold change,defactinib,inactive: 0.027
same,log2 fold change,[5],inactive: -0.022
same,log2 fold change,encorafenib,inactive: 0.036
same,log2 fold change,[6],inactive: -0.057
same,log2 fold change,alisertib,inactive: 0.033
same,log2 fold change,[1],inactive: -0.054
same,log2 fold change,gefitinib,inactive: 0.04
same,log2 fold change,lapatinib,inactive: 0.035
same,log2 fold change,duvelisib,inactive: 0.021
same,log2 fold change,tozasertib,inactive: 0.014
DAZAP1 (UniProt K7EQ02),log2 fold change,alisertib,inactive: 0.071
same,log2 fold change,gefitinib,inactive: -0.084
DAZAP2 (UniProt Q15038),log2 fold change,[4],inactive: -0.094
DCAKD (UniProt Q8WVC6),log2 fold change,Tubastatin A,inactive: -0.007
same,log2 fold change,defactinib,inactive: 0.151
same,log2 fold change,alisertib,inactive: -0.063
same,log2 fold change,gefitinib,inactive: 0.164
DET1 isoform 2 (UniProt Q7L5Y6),log2 fold change,Tubastatin A,inactive: -0.134
same,log2 fold change,[4],inactive: -0.016
same,log2 fold change,[1],inactive: 0.02
same,log2 fold change,lapatinib,inactive: 0.016
same,log2 fold change,crizotinib,inactive: -0.063
same,log2 fold change,doramapimod,inactive: -0.038
DENND1C (UniProt Q8IV53),log2 fold change,Tubastatin A,inactive: 0.077
same,log2 fold change,[4],inactive: 0.04
same,log2 fold change,defactinib,inactive: 0
same,log2 fold change,[5],inactive: 0.326
same,log2 fold change,pictilisib,inactive: -0.057
same,log2 fold change,crizotinib,inactive: -0.102
same,log2 fold change,duvelisib,inactive: 0.082
same,log2 fold change,doramapimod,inactive: 0.095
same,log2 fold change,bafetinib,inactive: -0.305
DCUN1D3 (UniProt Q8IWE4),log2 fold change,alvocidib,inactive: -0.131
same,log2 fold change,[5],inactive: 0.288
same,log2 fold change,encorafenib,inactive: 0.188
same,log2 fold change,[6],inactive: -0.146
same,log2 fold change,alisertib,inactive: 0.081
same,log2 fold change,gefitinib,inactive: 0.173
same,log2 fold change,pictilisib,inactive: -0.019
same,log2 fold change,[2],inactive: -0.254
same,log2 fold change,duvelisib,inactive: -0.088
same,log2 fold change,gandotinib,inactive: -0.598
same,log2 fold change,tozasertib,inactive: 0.07
same,log2 fold change,bafetinib,inactive: 0.078
same,log2 fold change,[3],inactive: -0.018
DCTD (UniProt D6RAD7),log2 fold change,alisertib,inactive: 0.008
same,log2 fold change,gefitinib,inactive: -0.026
DCAF12L2 (UniProt Q5VW00),log2 fold change,defactinib,inactive: -0.07
same,log2 fold change,encorafenib,inactive: 0.05
same,log2 fold change,[6],inactive: -0.058
same,log2 fold change,pictilisib,inactive: -0.044
same,log2 fold change,tozasertib,inactive: 0.104
same,log2 fold change,bafetinib,inactive: 0.003
DEUP1 (UniProt Q05D60),log2 fold change,Tubastatin A,inactive: 0.373
same,log2 fold change,[4],inactive: -0.046
same,log2 fold change,[5],inactive: 0.757
same,log2 fold change,encorafenib,inactive: -0.059
same,log2 fold change,[6],inactive: -0.043
same,log2 fold change,alisertib,inactive: -0.029
same,log2 fold change,[1],inactive: 0.247
same,log2 fold change,gefitinib,inactive: -0.283
same,log2 fold change,lapatinib,inactive: -0.133
same,log2 fold change,pictilisib,inactive: -0.063
same,log2 fold change,crizotinib,inactive: 0.052
same,log2 fold change,duvelisib,inactive: 0.044
same,log2 fold change,tozasertib,inactive: 0.072
same,log2 fold change,doramapimod,inactive: -0.086
same,log2 fold change,bafetinib,inactive: -0.138
DCAF17 (UniProt Q5H9S7),log2 fold change,alisertib,inactive: -0.011
same,log2 fold change,[1],inactive: -0.238
same,log2 fold change,gefitinib,inactive: -0.235
same,log2 fold change,lapatinib,inactive: 0.061
DEPDC7 (UniProt Q96QD5),log2 fold change,alvocidib,inactive: 0.15
same,log2 fold change,encorafenib,inactive: -0.08
same,log2 fold change,[6],inactive: 0.109
same,log2 fold change,alisertib,inactive: -0.154
same,log2 fold change,gefitinib,inactive: 0.152
same,log2 fold change,[2],inactive: -0.141
same,log2 fold change,gandotinib,inactive: -0.378
same,log2 fold change,tozasertib,inactive: -0.015
same,log2 fold change,[3],inactive: 0.075
DAPK2 isoform 2 (UniProt Q9UIK4),log2 fold change,Tubastatin A,inactive: 0.195
same,log2 fold change,[4],inactive: 0.297
same,log2 fold change,defactinib,inactive: 0.098
same,log2 fold change,[1],inactive: 0.027
same,log2 fold change,lapatinib,inactive: -0.168
DEPDC1B (UniProt Q8WUY9),log2 fold change,Tubastatin A,inactive: -0.024
same,log2 fold change,defactinib,inactive: -0.113
same,log2 fold change,[5],inactive: -0.388
same,log2 fold change,encorafenib,inactive: -0.037
same,log2 fold change,[6],inactive: 0.04
same,log2 fold change,alisertib,inactive: 0.054
same,log2 fold change,gefitinib,inactive: -0.026
same,log2 fold change,duvelisib,inactive: 0.068
same,log2 fold change,tozasertib,inactive: -0.439
DDIT4 (UniProt Q9NX09),log2 fold change,defactinib,inactive: -0.08
same,log2 fold change,encorafenib,inactive: 0.117
same,log2 fold change,[6],inactive: 0.065
same,log2 fold change,crizotinib,inactive: -0.007
same,log2 fold change,tozasertib,inactive: -0.077
same,log2 fold change,doramapimod,inactive: 0.167
DEF8 (UniProt Q6ZN54),log2 fold change,[4],inactive: 0.001
same,log2 fold change,defactinib,inactive: 0.153
same,log2 fold change,[5],inactive: 0.03
same,log2 fold change,encorafenib,inactive: 0.145
same,log2 fold change,[6],inactive: 0.283
same,log2 fold change,pictilisib,inactive: -0.02
same,log2 fold change,crizotinib,inactive: -0.137
same,log2 fold change,duvelisib,inactive: -0.01
same,log2 fold change,tozasertib,inactive: 0.013
same,log2 fold change,doramapimod,inactive: -0.153
same,log2 fold change,bafetinib,inactive: -0.123
DAPK3 (UniProt O43293),log2 fold change,alvocidib,inactive: 0.017
same,log2 fold change,defactinib,inactive: -0.019
same,log2 fold change,[1],inactive: -0.131
same,log2 fold change,lapatinib,inactive: -0.026
same,log2 fold change,[2],inactive: 0.048
same,log2 fold change,gandotinib,inactive: 0.507
same,log2 fold change,[3],inactive: -0.079
CYP4V2 (UniProt Q6ZWL3),log2 fold change,Tubastatin A,inactive: -0.1
same,log2 fold change,[4],inactive: -0.007
same,log2 fold change,[5],inactive: 0.045
same,log2 fold change,[1],inactive: -0.066
same,log2 fold change,lapatinib,inactive: 0.049
same,log2 fold change,pictilisib,active: -0.441
same,log2 fold change,crizotinib,inactive: 0.12
same,log2 fold change,duvelisib,inactive: 0.031
same,log2 fold change,doramapimod,inactive: 0.027
same,log2 fold change,bafetinib,inactive: 0.177
DENND5A (UniProt Q6IQ26),log2 fold change,[5],inactive: -0.103
same,log2 fold change,crizotinib,inactive: 0.107
same,log2 fold change,duvelisib,inactive: -0.082
same,log2 fold change,doramapimod,inactive: -0.102
DDX19A isoform 2 (UniProt Q9NUU7),log2 fold change,crizotinib,inactive: -0.527
same,log2 fold change,doramapimod,inactive: 0.093
DDX39B (UniProt H0Y400),log2 fold change,[1],inactive: 0.204
same,log2 fold change,lapatinib,inactive: 0.091
DDIT3 isoform 2 (UniProt P35638),log2 fold change,defactinib,inactive: 0.009
same,log2 fold change,encorafenib,inactive: 0.018
same,log2 fold change,[6],inactive: -0.041
same,log2 fold change,alisertib,inactive: -0.043
same,log2 fold change,gefitinib,inactive: 0.015
same,log2 fold change,crizotinib,inactive: -0.104
same,log2 fold change,tozasertib,inactive: 0.013
same,log2 fold change,doramapimod,inactive: -0.043
DENND1A isoform 6 (UniProt Q8TEH3),log2 fold change,Tubastatin A,inactive: 0.004
same,log2 fold change,[4],inactive: -0.012
same,log2 fold change,defactinib,inactive: 0.021
same,log2 fold change,[5],inactive: -0.099
same,log2 fold change,encorafenib,inactive: 0.031
same,log2 fold change,[6],inactive: 0.075
same,log2 fold change,alisertib,inactive: -0.233
same,log2 fold change,[1],inactive: 0.011
same,log2 fold change,gefitinib,inactive: -0.089
same,log2 fold change,lapatinib,inactive: -0.127
same,log2 fold change,pictilisib,inactive: -0.019
same,log2 fold change,crizotinib,inactive: -0.149
same,log2 fold change,duvelisib,inactive: -0.028
same,log2 fold change,tozasertib,inactive: -0.039
same,log2 fold change,doramapimod,inactive: 0.034
same,log2 fold change,bafetinib,inactive: 0.041
DEAF1 (UniProt O75398),log2 fold change,[5],inactive: 0.354
same,log2 fold change,encorafenib,inactive: -0.078
same,log2 fold change,[6],inactive: 0.269
same,log2 fold change,duvelisib,inactive: 0.056
same,log2 fold change,tozasertib,inactive: 0.003
CYP2S1 isoform 2 (UniProt Q96SQ9),log2 fold change,Tubastatin A,inactive: 0.027
same,log2 fold change,[4],inactive: -0.085
same,log2 fold change,defactinib,inactive: -0.022
same,log2 fold change,[5],inactive: -0.151
same,log2 fold change,encorafenib,inactive: 0.024
same,log2 fold change,[6],inactive: 0
same,log2 fold change,[1],inactive: -0.219
same,log2 fold change,lapatinib,inactive: 0.316
same,log2 fold change,crizotinib,inactive: 0.023
same,log2 fold change,duvelisib,inactive: -0.075
same,log2 fold change,tozasertib,inactive: -0.023
same,log2 fold change,doramapimod,inactive: -0.057
DDX39B (UniProt F6R6M7),log2 fold change,alvocidib,inactive: 0.103
same,log2 fold change,alisertib,inactive: -0.078
same,log2 fold change,gefitinib,inactive: 0.221
same,log2 fold change,[2],inactive: -0.116
same,log2 fold change,gandotinib,inactive: -0.076
same,log2 fold change,[3],inactive: -0.081
